# Measured values: the supplement of paper PMC8728848
# The other results are listed elsewhere or left out.
# What was measured:
# Experiment in all cases: glycan array binding signal (z-score within array); higher = stronger binding
# Details in all cases: glycan notation: IUPAC condensed, linker removed
# [1] = molecular target: Man(a1-2)Man(a1-3)[Man(a1-2)Man(a1-6)]Man(a1-6)[Man(a1-2)Man(a1-2)Man(a1-3)]Man
# In short: (§1)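 The binding signal is a Z-score computed within each array and averaged over linkers. Arrays of the same protein sequence at different concentrations or buffers were also averaged together. Data originate from 3228 arrays in the Consortium for Functional Glycomics database, kept only where the protein sequence was available.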
# [2] = molecular target: Man(a1-2)Man(a1-3)[Man(a1-2)Man(a1-6)]Man(a1-6)[Man(a1-2)Man(a1-2)Man(a1-3)]Man(b1-4)GlcNAc(b1-4)GlcNAc
# In short: as §1
# [3] = molecular target: Man(a1-2)Man(a1-3)[Man(a1-6)]Man(a1-6)[Man(a1-2)Man(a1-3)]Man(b1-4)GlcNAc(b1-4)GlcNAc
# In short: as §1
# [4] = molecular target: Man(a1-2)Man(a1-6)[Man(a1-3)]Man(a1-6)[Man(a1-2)Man(a1-2)Man(a1-3)]Man
# In short: as §1
# [5] = molecular target: Man(a1-2)Man(a1-6)[Man(a1-3)]Man(a1-6)[Man(a1-2)Man(a1-2)Man(a1-3)]Man(b1-4)GlcNAc(b1-4)GlcNAc
# In short: as §1
# [6] = molecular target: Man(a1-3)[Man(a1-6)]Man
# In short: as §1
# [7] = molecular target: Man(a1-3)[Man(a1-6)]Man(a1-6)[Man(a1-2)Man(a1-3)]Man(b1-4)GlcNAc(b1-4)GlcNAc
# In short: as §1
# [8] = molecular target: Man(a1-3)[Man(a1-6)]Man(a1-6)[Man(a1-3)]Man
# In short: as §1
# [9] = molecular target: Man(a1-3)[Man(a1-6)]Man(a1-6)[Man(a1-3)]Man(b1-4)GlcNAc(b1-4)GlcNAc
# In short: as §1
# [10] = molecular target: Man(a1-3)[Man(a1-6)]Man(b1-4)GlcNAc(b1-4)GlcNAc
# In short: as §1
# [11] = molecular target: Man(a1-3)[Man(a1-6)]Man(b1-4)GlcNAc(b1-4)[Fuc(a1-6)]GlcNAc
# In short: as §1
# [12] = molecular target: Man(a1-6)Man
# In short: as §1
# [13] = molecular target: Man(b1-4)GlcNAc
# In short: as §1
# [14] = molecular target: MurNAc(b1-4)GlcNAc
# In short: as §1
# [15] = molecular target: Neu5Ac(a2-3)Gal
# In short: as §1
# [16] = molecular target: Neu5Ac(a2-3)Gal(b1-3)GalNAc
# In short: as §1
# [17] = molecular target: Neu5Ac(a2-3)Gal(b1-3)GalNAc(b1-3)Gal(a1-4)Gal(b1-4)Glc
# In short: as §1
# [18] = molecular target: Neu5Ac(a2-3)Gal(b1-3)GalNAc(b1-4)Gal(b1-4)Glc
# In short: as §1
# [19] = molecular target: Neu5Ac(a2-3)Gal(b1-3)GalNAc(b1-4)[Neu5Ac(a2-3)]Gal(b1-4)Glc
# In short: as §1
# [20] = molecular target: Neu5Ac(a2-3)Gal(b1-3)GalNAc(b1-4)[Neu5Ac(a2-8)Neu5Ac(a2-3)]Gal(b1-4)Glc
# In short: as §1
# [21] = molecular target: Neu5Ac(a2-3)Gal(b1-3)GalNAc6S
# In short: as §1
# [22] = molecular target: Neu5Ac(a2-3)Gal(b1-3)GlcNAc
# In short: as §1
# [23] = molecular target: Neu5Ac(a2-3)Gal(b1-3)GlcNAc(b1-2)Man
# In short: as §1
# [24] = molecular target: Neu5Ac(a2-3)Gal(b1-3)GlcNAc(b1-2)Man(a1-3)[GlcNAc(b1-4)][Neu5Ac(a2-3)Gal(b1-3)GlcNAc(b1-2)Man(a1-6)]Man(b1-4)GlcNAc(b1-4)GlcNAc
# In short: as §1
# [25] = molecular target: Neu5Ac(a2-3)Gal(b1-3)GlcNAc(b1-2)Man(a1-3)[Neu5Ac(a2-3)Gal(b1-3)GlcNAc(b1-2)Man(a1-6)]Man(b1-4)GlcNAc(b1-4)GlcNAc
# In short: as §1
# [26] = molecular target: Neu5Ac(a2-3)Gal(b1-3)GlcNAc(b1-2)[Neu5Ac(a2-3)Gal(b1-3)GlcNAc(b1-4)]Man(a1-6)[Neu5Ac(a2-3)Gal(b1-3)GlcNAc(b1-2)Man(a1-3)]Man(b1-4)GlcNAc(b1-4)GlcNAc
# In short: as §1
# [27] = molecular target: Neu5Ac(a2-3)Gal(b1-3)GlcNAc(b1-3)Gal(b1-3)GlcNAc
# In short: as §1
# [28] = molecular target: Neu5Ac(a2-3)Gal(b1-3)GlcNAc(b1-3)Gal(b1-4)GlcNAc
# In short: as §1
# [29] = molecular target: Neu5Ac(a2-3)Gal(b1-3)GlcNAc(b1-3)GalNAc
# In short: as §1
# [30] = molecular target: Neu5Ac(a2-3)Gal(b1-3)GlcNAc(b1-6)GalNAc
# In short: as §1
binder,measurement,setting,value
"Thrombomodulin Extracellular (Mus musculus), P15306 (protein) MLGIFFLGVLAPASLGLSALAKLQPTGSQCVEHECFALFQGPATFLDASQACQRLQGHLMTVRSSVAADVISLLLSQSSMDLGPWIGLQLPQGCDDPVHLGPLRGFQWVTGDNHTSYSRWARPNDQTAPLCGPLCVTVSTATEAAPGEPAWEEKPCETETQGFLCEFYFTASCRPLTVNTRDPEAAHISSTYNTPFGVSGADFQTLPVGSSAAVEPLGLELVCRAPPGTSEGHWAWEATGAWNCSVENGGCEYLCNRSTNEPRCLCPRDMDLQADGRSCARPVVQSCNELCEHFCVSNAEVPGSYSCMCETGYQLAADGHRCEDVDDCKQGPNPCPQLCVNTKGGFECFCYDGYELVDGECVELLDPCFGSNCEFQCQPVSPTDYRCICAPGFAPKPDEPHKCEMFCNETSCPADCDPNSPTVCECPEGFILDEGSVCTDIDECSQGECFTSECRNFPGSYECICGPDTALAGQISKDCDPIPVREDTKEEEGSGEPPVSPTPGSPTGPPSARPVHSGVLIGISIASLSLVVALLALLCHLRKKQGAARAELEYKCASSAKEVVLQHVRTDRTLQKF",glycan array binding signal (z-score),[1],0.249
same,glycan array binding signal (z-score),[2],-0.485
same,glycan array binding signal (z-score),[3],-1.5
same,glycan array binding signal (z-score),[4],0.499
same,glycan array binding signal (z-score),[5],-0.496
same,glycan array binding signal (z-score),[6],-0.064
same,glycan array binding signal (z-score),[7],-0.148
same,glycan array binding signal (z-score),[8],2.92
same,glycan array binding signal (z-score),[9],-0.4
same,glycan array binding signal (z-score),[10],0.517
same,glycan array binding signal (z-score),[11],0.808
same,glycan array binding signal (z-score),[12],-0.543
same,glycan array binding signal (z-score),[13],-0.999
same,glycan array binding signal (z-score),[14],0.172
same,glycan array binding signal (z-score),[15],-0.229
same,glycan array binding signal (z-score),[16],0.098
same,glycan array binding signal (z-score),[17],-1.15
same,glycan array binding signal (z-score),[18],-0.174
same,glycan array binding signal (z-score),[19],-0.94
same,glycan array binding signal (z-score),[20],-0.672
same,glycan array binding signal (z-score),[21],-1.24
same,glycan array binding signal (z-score),[22],-0.058
same,glycan array binding signal (z-score),[23],0.039
same,glycan array binding signal (z-score),[24],-0.635
same,glycan array binding signal (z-score),[25],2.55
same,glycan array binding signal (z-score),[26],-0.011
same,glycan array binding signal (z-score),[27],0.167
same,glycan array binding signal (z-score),[28],0.433
same,glycan array binding signal (z-score),[29],1.75
same,glycan array binding signal (z-score),[30],1.49

# Two entries from above, bar-delimited.
binder | measurement | setting | value
Thrombomodulin Extracellular (Mus musculus), P15306 (protein) MLGIFFLGVLAPASLGLSALAKLQPTGSQCVEHECFALFQGPATFLDASQACQRLQGHLMTVRSSVAADVISLLLSQSSMDLGPWIGLQLPQGCDDPVHLGPLRGFQWVTGDNHTSYSRWARPNDQTAPLCGPLCVTVSTATEAAPGEPAWEEKPCETETQGFLCEFYFTASCRPLTVNTRDPEAAHISSTYNTPFGVSGADFQTLPVGSSAAVEPLGLELVCRAPPGTSEGHWAWEATGAWNCSVENGGCEYLCNRSTNEPRCLCPRDMDLQADGRSCARPVVQSCNELCEHFCVSNAEVPGSYSCMCETGYQLAADGHRCEDVDDCKQGPNPCPQLCVNTKGGFECFCYDGYELVDGECVELLDPCFGSNCEFQCQPVSPTDYRCICAPGFAPKPDEPHKCEMFCNETSCPADCDPNSPTVCECPEGFILDEGSVCTDIDECSQGECFTSECRNFPGSYECICGPDTALAGQISKDCDPIPVREDTKEEEGSGEPPVSPTPGSPTGPPSARPVHSGVLIGISIASLSLVVALLALLCHLRKKQGAARAELEYKCASSAKEVVLQHVRTDRTLQKF | glycan array binding signal (z-score) | [27] | 0.167
same | glycan array binding signal (z-score) | [28] | 0.433
